From PMC8096244
These are yes or no findings as the source states them, for the method shown. In cells and extracts the contact can be indirect. Here binding means that the protein was enriched with, or labelled near, the bait; the list need not be complete.

Amino acid sequences for entries named in this document (tags omitted).
UniProt P51979: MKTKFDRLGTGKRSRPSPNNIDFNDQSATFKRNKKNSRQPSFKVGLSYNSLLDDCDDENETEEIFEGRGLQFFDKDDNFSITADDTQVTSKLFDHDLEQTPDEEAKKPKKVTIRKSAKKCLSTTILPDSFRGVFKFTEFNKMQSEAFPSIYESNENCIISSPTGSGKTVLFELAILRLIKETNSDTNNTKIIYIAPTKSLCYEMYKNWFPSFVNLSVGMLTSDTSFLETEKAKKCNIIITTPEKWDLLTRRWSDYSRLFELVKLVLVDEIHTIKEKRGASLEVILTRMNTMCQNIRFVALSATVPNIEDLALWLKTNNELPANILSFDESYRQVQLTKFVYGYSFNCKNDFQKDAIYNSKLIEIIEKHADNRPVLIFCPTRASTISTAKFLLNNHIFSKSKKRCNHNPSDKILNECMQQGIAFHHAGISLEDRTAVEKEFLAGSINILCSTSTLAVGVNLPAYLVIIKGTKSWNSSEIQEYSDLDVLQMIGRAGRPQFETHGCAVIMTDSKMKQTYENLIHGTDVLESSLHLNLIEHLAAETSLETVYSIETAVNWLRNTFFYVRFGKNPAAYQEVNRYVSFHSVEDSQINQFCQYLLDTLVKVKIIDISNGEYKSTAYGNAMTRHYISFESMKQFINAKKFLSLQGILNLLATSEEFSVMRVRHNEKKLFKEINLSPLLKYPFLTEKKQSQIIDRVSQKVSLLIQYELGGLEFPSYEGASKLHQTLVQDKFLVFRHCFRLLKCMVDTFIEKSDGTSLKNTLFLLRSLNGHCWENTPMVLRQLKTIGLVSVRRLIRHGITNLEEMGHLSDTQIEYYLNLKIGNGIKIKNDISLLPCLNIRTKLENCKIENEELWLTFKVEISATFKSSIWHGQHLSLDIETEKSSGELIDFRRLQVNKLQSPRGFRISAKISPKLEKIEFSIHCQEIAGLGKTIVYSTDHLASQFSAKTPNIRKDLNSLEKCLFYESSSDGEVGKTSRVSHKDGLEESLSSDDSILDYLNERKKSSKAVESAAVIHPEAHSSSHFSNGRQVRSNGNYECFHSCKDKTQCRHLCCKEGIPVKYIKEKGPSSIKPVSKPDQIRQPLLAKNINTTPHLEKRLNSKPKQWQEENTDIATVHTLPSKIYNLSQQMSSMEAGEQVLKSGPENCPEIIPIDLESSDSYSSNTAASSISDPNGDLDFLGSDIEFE

Molecular target: Mer3-TAP (S. cerevisiae) (UniProt P51979)
Experiment: affinity purification with mass spectrometry; Mer3-TAP captured on IgG Sepharose from lysate of cells at 5 h of synchronized meiosis (TAP lysis buffer, 300 mM NaCl, 0.5% NP-40, 4°C); on-bead digestion, label-free quantitative MS, four replicates, against an untagged Mer3 strain

- binding: binds
B1: Rfc1 (protein, UniProt P38630 1-861)
chain: MVNISDFFGKNKKSVRSSTSRPTRQVGSSKPEVIDLDTESDQESTNKTPKKMPVSNVIDVSETPEGEKKLPLPAKRKASSPTVKPASSKKTKPSSKSSDSASNITAQDVLDKIPSLDLSNVHVKENAKFDFKSANSNADPDEIVSEIGSFPEGKPNCLLGLTIVFTGVLPTLERGASEALAKRYGARVTKSISSKTSVVVLGDEAGPKKLEKIKQLKIKAIDEEGFKQLIAGMPAEGGDGEAAEKARRKLEEQHNIATKEAELLVKKEEERSKKLAATRVSGGHLERDNVVREEDKLWTVKYAPTNLQQVCGNKGSVMKLKNWLANWENSKKNSFKHAGKDGSGVFRAAMLYGPPGIGKTTAAHLVAQELGYDILEQNASDVRSKTLLNAGVKNALDNMSVVGYFKHNEEAQNLNGKHFVIIMDEVDGMSGGDRGGVGQLAQFCRKTSTPLILICNERNLPKMRPFDRVCLDIQFRRPDANSIKSRLMTIAIREKFKLDPNVIDRLIQTTRGDIRQVINLLSTISTTTKTINHENINEISKAWEKNIALKPFDIAHKMLDGQIYSDIGSRNFTLNDKIALYFDDFDFTPLMIQENYLSTRPSVLKPGQSHLEAVAEAANCISLGDIVEKKIRSSEQLWSLLPLHAVLSSVYPASKVAGHMAGRINFTAWLGQNSKSAKYYRLLQEIHYHTRLGTSTDKIGLRLDYLPTFRKRLLDPFLKQGADAISSVIEVMDDYYLTKEDWDSIMEFFVGPDVTTAIIKKIPATVKSGFTRKYNSMTHPVAIYRTGSTIGGGGVGTSTSTPDFEDVVDADDNPVPADDEETQDSSTDLKKDKLIKQKAKPTKRKTATSKPGGSKKRKTKA
